Results are given in words; binding and its absence hold for the method and conditions named. In cells and extracts the contact can be indirect. Some entries that bind do so weakly or less than the wild type.

Protein sequences, listed by entry. Tags and fused reporters are not part of them.
UniProt P19484: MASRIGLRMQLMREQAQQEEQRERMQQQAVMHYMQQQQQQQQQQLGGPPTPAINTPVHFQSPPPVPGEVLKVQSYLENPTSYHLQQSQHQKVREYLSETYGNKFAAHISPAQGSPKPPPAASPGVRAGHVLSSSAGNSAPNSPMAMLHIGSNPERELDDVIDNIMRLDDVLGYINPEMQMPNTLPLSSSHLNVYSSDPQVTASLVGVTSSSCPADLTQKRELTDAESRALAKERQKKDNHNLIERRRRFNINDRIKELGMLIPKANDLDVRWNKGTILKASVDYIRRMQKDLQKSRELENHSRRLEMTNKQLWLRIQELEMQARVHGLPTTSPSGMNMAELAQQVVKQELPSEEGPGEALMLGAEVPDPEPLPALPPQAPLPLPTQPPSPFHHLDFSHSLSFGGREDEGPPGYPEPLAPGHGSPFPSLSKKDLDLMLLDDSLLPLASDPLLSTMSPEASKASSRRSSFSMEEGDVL
UniProt Q9Y508: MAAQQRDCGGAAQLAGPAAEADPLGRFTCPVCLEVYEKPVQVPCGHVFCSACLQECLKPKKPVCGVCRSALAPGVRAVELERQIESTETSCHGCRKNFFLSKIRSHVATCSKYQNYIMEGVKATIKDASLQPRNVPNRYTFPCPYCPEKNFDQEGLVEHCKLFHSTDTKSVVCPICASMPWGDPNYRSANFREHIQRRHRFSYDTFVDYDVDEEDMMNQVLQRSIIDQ
UniProt Q13620: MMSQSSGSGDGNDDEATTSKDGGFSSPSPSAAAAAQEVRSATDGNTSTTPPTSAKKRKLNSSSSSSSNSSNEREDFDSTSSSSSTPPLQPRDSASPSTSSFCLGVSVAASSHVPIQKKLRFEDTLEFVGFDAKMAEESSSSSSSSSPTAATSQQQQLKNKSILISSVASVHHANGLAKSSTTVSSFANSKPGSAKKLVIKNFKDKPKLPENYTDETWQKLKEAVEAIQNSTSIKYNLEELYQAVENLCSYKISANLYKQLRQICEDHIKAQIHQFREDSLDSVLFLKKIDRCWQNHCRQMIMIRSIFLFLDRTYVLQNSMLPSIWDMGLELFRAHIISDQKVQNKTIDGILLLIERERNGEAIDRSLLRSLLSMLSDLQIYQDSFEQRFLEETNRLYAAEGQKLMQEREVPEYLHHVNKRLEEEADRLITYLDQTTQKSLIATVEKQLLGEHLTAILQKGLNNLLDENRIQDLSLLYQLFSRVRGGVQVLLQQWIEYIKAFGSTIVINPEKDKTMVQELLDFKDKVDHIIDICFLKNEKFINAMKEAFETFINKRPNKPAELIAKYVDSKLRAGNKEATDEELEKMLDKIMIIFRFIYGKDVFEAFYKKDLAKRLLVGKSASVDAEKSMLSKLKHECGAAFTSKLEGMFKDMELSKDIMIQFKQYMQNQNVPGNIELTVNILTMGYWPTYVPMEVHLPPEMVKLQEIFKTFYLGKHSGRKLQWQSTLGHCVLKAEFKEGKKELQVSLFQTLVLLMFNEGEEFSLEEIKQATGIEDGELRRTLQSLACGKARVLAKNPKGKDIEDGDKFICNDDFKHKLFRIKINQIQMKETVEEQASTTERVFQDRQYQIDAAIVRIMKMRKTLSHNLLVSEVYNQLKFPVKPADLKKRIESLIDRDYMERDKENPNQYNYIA
UniProt Q13619: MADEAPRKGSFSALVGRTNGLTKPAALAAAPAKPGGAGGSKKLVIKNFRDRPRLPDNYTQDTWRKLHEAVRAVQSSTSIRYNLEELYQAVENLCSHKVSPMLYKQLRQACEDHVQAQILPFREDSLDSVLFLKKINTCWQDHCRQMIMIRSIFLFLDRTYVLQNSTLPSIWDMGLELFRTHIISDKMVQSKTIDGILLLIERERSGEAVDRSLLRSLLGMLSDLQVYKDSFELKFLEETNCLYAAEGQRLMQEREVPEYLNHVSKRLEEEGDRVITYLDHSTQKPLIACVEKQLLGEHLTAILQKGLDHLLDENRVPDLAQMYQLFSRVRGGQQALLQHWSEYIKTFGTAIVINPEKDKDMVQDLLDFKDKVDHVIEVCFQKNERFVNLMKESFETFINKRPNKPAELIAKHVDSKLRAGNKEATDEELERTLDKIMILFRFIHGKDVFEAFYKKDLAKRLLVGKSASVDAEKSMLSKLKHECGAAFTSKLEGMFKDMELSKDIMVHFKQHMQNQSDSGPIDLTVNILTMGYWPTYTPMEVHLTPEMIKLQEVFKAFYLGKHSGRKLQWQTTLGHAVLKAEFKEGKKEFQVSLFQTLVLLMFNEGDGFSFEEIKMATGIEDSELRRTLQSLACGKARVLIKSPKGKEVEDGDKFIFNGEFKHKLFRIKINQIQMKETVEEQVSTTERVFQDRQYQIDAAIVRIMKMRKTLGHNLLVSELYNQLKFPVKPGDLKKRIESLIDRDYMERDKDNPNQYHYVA
UniProt Q9UNE7: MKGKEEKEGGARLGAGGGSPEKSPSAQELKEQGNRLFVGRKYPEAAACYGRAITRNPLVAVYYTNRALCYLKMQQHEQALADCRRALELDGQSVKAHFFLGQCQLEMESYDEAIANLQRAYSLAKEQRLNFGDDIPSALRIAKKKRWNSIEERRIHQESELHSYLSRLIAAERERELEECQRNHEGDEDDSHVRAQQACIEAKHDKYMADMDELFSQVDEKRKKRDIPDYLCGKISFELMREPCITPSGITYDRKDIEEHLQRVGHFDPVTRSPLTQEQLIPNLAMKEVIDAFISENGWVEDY

The values that follow come from paper PMC11354204, “Lactylation stabilizes TFEB to elevate autophagy and lysosomal activity” (The Journal of Cell Biology, 2024).

The target of the assay is TFEB-Flag (human) (UniProt P19484). In words: co-IP; HEK293 cells with TFEB-Flag (stably expressed, Fig. S3 D; cotransfected, Fig. 4 C) and an HA-tagged partner; TFEB-Flag precipitated with anti-Flag, blotted with anti-HA; NP-40 lysis buffer, 4°C.

As for HA-RNF114 (from UniProt Q9Y508 1-228), the binding result was “binds”. “HA-tagged Cullin4B (from UniProt Q13620 1-913)”: the binding entry is given as “no binding”.

Regarding “HA-tagged Cullin4A (from UniProt Q13619 1-759)”, the binding entry was “binds”. Regarding “HA-tagged STUB1 (from UniProt Q9UNE7 1-303)”, the binding entry is on record as “binds”.
